In article PMC3624461:
Results are given in words; binding and its absence hold for the method and conditions named.

Sequences of proteins named here, by UniProt entry; tags and fusion partners are left off. A change or cut given only in a name is not applied to a line headed by its entry. Residues count along the entry.
UniProt Q8NBP7, residues 31-454: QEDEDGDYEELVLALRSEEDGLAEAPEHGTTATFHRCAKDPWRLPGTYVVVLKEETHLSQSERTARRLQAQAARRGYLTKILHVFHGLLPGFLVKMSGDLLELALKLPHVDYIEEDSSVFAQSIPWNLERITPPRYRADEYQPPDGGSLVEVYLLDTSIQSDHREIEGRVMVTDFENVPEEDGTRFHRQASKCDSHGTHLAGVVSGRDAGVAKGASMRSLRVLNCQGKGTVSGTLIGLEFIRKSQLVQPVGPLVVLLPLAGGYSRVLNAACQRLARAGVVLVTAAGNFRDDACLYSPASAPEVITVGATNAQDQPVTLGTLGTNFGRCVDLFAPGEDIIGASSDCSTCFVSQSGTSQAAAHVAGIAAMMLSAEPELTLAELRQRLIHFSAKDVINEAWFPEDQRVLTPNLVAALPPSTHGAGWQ
UniProt Q06481, residues 32-692: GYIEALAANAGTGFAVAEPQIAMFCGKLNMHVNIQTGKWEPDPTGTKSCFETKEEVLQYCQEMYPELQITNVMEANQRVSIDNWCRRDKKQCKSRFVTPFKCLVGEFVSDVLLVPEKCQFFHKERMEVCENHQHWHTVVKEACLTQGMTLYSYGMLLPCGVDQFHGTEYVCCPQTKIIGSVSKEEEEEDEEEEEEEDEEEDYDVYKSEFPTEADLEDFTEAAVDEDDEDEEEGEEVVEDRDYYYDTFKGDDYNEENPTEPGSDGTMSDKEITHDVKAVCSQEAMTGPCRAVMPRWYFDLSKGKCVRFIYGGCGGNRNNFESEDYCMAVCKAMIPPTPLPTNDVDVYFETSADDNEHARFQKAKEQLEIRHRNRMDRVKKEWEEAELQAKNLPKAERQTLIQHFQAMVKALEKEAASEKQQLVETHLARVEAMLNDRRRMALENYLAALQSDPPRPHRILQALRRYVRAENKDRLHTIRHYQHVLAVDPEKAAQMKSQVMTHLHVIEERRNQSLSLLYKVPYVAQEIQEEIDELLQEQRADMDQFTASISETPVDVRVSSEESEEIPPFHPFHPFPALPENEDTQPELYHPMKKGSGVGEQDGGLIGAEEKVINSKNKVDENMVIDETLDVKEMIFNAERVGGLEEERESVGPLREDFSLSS
UniProt P05067, residues 18-699: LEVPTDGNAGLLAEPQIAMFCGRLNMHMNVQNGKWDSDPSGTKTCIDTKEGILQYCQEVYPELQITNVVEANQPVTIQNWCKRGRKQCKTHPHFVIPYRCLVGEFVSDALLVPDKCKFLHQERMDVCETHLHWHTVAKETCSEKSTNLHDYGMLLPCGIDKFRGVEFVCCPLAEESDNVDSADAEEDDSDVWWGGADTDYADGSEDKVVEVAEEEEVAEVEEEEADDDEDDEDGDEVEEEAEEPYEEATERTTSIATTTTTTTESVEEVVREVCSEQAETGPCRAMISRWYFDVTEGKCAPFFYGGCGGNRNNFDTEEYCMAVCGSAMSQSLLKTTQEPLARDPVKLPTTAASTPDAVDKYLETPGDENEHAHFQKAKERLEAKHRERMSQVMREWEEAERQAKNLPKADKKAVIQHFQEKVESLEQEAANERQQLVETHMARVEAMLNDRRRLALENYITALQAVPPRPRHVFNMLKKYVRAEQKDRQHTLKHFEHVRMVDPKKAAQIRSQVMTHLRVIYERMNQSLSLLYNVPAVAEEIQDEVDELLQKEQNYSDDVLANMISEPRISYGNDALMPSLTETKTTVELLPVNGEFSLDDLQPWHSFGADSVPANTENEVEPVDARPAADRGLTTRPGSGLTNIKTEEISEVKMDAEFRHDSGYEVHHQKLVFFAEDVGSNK

Target: PCSK9ΔCT (C-terminal truncation of PCSK9 lacking the CHRD, residues 1–454) (human) (UniProt Q8NBP7)
Experiment: co-IP; purified recombinant proteins, 3 μg/ml each, mixed at pH 6.0 in IP buffer; J16- or IC-coated protein A Dynabeads, 30 min; eluted by boiling; Western blot; both purified

binding	Substance
no binding (tested: 3 μg/ml)	APLP2-extracellular domain (ECD) (amino acids 1–692) (from UniProt Q06481 32-692) (domain or fragment)
no binding (tested: 3 μg/ml)	Amyloid precursor protein (APP)-ECD (amino acids 1–699) (from UniProt P05067 18-699) (domain or fragment)
